From the supplement of paper PMC12819154, “High-throughput peptide-centric local stability assay extends protein–ligand identification to membrane proteins, tissues and bacteria” (Nature Structural & Molecular Biology, 2025)
Some of the results follow. Most entries show no effect beyond the scatter of the controls.

Chains of the proteins cited; added tags and fusions are not shown. Lines headed by an entry give the natural chain unless they say otherwise; changes in a name come on top.
UniProt Q6A0A9: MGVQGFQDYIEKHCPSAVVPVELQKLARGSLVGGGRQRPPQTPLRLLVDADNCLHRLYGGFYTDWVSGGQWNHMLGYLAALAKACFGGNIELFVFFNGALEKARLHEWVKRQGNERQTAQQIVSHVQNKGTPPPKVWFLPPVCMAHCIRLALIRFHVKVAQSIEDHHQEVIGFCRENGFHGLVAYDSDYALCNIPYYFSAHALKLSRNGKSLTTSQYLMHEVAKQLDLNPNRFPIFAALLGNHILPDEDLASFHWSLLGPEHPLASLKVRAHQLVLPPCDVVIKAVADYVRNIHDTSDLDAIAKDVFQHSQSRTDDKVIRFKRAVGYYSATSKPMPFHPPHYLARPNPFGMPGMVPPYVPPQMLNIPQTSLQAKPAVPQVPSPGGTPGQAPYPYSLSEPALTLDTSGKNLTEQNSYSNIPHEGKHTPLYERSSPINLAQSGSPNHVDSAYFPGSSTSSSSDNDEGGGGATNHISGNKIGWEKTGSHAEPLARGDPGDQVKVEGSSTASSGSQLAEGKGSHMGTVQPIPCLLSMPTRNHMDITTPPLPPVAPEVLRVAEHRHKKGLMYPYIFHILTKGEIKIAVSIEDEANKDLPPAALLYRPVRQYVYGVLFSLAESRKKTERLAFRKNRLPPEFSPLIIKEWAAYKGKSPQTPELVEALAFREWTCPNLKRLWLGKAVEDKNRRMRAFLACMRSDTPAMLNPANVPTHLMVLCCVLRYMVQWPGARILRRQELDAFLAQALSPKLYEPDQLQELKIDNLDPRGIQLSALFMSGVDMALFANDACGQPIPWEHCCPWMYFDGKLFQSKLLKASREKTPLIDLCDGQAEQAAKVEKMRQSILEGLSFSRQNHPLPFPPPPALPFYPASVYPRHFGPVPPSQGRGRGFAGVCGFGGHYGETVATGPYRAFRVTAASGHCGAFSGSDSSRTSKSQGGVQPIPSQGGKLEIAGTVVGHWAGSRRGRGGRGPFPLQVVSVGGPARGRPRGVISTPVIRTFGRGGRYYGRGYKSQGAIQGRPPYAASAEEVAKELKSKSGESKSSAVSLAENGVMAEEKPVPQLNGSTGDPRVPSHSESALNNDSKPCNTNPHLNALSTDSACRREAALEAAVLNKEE
UniProt Q6TEK5: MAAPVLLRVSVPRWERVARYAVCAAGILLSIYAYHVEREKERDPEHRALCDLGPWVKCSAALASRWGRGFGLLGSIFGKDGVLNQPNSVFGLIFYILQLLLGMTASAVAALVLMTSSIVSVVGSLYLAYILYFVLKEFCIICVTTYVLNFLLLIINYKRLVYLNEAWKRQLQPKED
UniProt Q6PE15: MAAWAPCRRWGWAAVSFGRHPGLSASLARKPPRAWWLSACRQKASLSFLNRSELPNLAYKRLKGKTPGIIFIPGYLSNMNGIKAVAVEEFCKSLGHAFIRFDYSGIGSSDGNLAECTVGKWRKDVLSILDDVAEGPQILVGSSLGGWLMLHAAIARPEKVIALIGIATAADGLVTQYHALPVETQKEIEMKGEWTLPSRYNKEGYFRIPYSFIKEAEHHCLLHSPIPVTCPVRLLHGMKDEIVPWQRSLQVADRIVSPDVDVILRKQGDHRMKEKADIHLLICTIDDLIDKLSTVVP
UniProt Q6NT99: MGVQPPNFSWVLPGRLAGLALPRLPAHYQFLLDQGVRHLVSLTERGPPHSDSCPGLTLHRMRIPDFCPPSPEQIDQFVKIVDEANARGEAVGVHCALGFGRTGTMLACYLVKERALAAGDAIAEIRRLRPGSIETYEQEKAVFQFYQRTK
UniProt Q6PGA0, whole entry: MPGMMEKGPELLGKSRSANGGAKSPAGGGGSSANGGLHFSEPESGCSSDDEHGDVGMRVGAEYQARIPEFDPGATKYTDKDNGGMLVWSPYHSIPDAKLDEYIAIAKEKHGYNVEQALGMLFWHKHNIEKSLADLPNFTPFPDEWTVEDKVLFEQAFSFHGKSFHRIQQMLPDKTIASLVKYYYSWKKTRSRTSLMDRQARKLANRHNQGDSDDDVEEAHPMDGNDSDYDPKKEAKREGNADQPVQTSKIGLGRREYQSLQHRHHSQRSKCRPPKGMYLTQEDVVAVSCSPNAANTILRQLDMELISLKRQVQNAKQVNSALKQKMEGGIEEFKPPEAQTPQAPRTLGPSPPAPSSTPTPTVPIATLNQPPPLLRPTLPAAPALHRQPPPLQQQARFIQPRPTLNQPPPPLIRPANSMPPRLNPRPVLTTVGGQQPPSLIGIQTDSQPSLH
UniProt Q6PR54: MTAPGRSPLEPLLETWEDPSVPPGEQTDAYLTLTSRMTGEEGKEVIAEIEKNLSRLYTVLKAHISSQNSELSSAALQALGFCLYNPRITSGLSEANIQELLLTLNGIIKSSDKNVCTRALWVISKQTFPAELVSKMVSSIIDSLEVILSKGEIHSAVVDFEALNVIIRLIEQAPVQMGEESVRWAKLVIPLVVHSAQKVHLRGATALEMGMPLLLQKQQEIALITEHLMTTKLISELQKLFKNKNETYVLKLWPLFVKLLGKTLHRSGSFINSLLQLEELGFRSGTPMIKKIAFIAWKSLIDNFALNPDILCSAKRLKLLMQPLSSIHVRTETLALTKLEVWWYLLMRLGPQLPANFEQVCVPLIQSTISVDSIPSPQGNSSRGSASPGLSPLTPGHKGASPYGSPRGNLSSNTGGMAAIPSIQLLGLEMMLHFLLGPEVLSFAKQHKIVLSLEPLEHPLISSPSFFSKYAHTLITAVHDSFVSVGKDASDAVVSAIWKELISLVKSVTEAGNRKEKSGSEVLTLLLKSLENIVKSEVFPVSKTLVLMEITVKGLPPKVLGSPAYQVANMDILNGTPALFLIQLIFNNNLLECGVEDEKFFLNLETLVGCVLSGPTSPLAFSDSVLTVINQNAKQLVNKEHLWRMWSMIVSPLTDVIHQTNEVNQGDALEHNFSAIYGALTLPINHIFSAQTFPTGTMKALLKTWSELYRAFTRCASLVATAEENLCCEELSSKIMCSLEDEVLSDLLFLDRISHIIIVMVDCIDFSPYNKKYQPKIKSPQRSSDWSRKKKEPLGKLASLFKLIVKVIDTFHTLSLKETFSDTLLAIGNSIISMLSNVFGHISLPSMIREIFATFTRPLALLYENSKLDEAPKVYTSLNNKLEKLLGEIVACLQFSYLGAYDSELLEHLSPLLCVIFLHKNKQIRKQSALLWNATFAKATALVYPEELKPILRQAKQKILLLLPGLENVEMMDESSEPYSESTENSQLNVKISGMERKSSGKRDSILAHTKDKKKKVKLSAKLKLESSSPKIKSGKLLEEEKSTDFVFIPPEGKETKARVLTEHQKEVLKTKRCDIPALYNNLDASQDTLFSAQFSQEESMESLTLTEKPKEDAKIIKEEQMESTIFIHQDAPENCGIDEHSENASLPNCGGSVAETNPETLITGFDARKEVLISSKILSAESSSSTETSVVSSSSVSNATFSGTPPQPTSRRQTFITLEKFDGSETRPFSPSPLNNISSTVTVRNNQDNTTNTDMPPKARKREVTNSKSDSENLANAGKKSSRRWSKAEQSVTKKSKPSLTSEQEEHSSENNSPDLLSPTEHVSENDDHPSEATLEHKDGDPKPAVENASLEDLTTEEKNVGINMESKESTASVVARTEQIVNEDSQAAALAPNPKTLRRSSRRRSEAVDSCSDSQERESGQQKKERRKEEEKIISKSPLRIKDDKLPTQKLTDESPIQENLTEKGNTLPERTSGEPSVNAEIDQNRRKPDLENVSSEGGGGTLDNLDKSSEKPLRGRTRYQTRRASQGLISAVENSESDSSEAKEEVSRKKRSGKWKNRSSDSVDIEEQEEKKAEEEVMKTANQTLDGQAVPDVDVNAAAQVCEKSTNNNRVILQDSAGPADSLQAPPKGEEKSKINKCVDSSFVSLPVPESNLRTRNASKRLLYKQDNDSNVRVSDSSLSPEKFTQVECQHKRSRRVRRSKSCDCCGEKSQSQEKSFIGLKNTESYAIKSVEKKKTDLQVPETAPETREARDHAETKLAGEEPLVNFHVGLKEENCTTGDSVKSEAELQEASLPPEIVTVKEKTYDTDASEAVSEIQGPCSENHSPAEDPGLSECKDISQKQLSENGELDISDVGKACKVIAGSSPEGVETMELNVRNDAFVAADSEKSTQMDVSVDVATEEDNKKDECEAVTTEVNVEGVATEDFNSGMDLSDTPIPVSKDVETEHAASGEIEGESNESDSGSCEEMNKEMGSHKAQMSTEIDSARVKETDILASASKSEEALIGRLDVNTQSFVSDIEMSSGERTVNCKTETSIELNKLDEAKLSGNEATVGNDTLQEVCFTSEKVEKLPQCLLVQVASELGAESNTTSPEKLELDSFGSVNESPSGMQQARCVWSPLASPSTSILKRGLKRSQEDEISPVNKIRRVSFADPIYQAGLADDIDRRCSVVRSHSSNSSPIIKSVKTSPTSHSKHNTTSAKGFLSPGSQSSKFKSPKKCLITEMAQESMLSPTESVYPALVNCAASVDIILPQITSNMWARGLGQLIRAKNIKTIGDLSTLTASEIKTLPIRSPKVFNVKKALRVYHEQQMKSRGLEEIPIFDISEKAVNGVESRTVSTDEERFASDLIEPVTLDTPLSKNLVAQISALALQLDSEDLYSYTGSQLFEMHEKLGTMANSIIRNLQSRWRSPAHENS
UniProt Q6NV72: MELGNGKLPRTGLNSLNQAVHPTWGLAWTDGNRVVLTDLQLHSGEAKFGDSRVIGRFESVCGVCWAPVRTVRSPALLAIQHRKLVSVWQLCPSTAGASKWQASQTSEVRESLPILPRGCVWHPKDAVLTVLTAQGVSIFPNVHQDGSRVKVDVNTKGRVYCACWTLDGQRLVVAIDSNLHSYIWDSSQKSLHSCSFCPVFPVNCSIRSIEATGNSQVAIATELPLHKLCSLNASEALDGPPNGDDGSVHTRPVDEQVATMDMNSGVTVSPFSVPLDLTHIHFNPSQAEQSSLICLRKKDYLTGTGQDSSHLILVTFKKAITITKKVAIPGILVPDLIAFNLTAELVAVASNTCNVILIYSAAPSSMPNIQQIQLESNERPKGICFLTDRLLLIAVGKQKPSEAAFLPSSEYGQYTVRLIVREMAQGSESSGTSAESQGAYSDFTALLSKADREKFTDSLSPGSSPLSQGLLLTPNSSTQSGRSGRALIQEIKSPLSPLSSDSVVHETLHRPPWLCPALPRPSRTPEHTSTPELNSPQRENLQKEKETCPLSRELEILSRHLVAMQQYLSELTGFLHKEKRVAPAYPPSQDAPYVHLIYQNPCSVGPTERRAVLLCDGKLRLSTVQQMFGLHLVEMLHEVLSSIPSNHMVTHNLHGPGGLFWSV
UniProt Q6PFX9: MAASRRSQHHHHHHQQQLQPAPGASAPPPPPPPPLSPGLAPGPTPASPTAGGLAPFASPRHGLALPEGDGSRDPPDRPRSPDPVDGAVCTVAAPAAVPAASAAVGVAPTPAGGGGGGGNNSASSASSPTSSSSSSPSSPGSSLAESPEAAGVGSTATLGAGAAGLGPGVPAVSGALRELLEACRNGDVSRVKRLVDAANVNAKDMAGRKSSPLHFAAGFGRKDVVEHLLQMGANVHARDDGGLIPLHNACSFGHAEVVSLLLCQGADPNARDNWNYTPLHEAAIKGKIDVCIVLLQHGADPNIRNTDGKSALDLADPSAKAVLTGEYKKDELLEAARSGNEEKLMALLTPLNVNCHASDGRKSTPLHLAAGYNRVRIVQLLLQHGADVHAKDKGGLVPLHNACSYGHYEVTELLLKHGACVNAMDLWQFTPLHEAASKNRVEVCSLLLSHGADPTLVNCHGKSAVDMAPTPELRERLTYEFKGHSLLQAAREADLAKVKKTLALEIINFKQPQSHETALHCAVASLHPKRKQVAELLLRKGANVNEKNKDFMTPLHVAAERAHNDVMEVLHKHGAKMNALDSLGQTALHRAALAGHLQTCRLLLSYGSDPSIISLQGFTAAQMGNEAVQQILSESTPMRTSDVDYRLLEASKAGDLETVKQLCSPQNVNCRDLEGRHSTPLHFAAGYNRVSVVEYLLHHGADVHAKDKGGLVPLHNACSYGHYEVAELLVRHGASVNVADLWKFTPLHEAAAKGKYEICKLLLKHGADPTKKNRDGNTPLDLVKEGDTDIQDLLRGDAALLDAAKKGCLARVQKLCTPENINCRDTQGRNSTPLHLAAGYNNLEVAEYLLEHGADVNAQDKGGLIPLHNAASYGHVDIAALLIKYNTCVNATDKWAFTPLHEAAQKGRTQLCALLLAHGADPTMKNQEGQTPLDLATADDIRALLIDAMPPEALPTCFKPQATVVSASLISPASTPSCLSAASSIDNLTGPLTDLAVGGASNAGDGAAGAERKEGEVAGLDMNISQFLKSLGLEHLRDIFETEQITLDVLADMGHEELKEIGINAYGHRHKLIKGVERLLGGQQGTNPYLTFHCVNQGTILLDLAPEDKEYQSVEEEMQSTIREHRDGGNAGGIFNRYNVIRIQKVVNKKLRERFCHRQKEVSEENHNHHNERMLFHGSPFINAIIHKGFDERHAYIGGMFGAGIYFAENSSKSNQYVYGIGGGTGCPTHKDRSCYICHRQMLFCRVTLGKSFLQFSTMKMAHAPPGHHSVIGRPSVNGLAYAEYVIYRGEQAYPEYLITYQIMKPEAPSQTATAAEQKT

Compound: CN[C@@H]1C[C@H]2O[C@@](C)([C@@H]1OC)n1c3ccccc3c3c4c(c5c6ccccc6n2c5c31)C(=O)NC4 [staurosporine]
Assay: log2 fold change of tryptic peptide abundance, ligand vs vehicle (limited proteolysis) (log2 ratio); higher = more trypsin-susceptible (destabilized)
Details: ligand concentration: 20 uM; sample: mouse liver crude lysate; replicate design: treated separately

Row | Target | log2 fold change
1 | UniProt Q6A0D4 (peptide sequence: KMEIFAFFNRPK, peptide start residue: 278) | 0.453
2 | UniProt Q6PIC6 (peptide sequence: LIIVEGCQR, peptide start residue: 699) | -0.407
3 | UniProt Q6A0A9 (peptide sequence: SQGGVQPIPSQGGK, peptide start residue: 931) | 0.098
4 | UniProt Q6TEK5 (peptide sequence: ALCDLGPWVK, peptide start residue: 48) | -0.0919
5 | UniProt Q6DG52 (peptide sequence: CGDCVEKEYPNR, peptide start residue: 2) | 0.146
6 | UniProt Q6P3E7 (peptide sequence: QYNAVYFHPDTFHCAR, peptide start residue: 89) | -0.392
7 | UniProt Q6NXW6 (peptide sequence: KIEEVETWLK, peptide start residue: 108) | -0.47
8 | UniProt Q6PDJ6 (peptide sequence: SASSSSHVDSIDNR, peptide start residue: 508) | -0.215
9 | UniProt Q6NXN1 (peptide sequence: RPTSNGVVSSPNSTSRPALPVK, peptide start residue: 65) | -0.175
10 | UniProt Q6IS41 (peptide sequence: LQADGQGQHR, peptide start residue: 247) | -0.365
11 | UniProt Q6PD24 (peptide sequence: EQEELER, peptide start residue: 579) | -0.11
12 | UniProt Q6P4T2 (peptide sequence: LYDLNHNEIGELIR, peptide start residue: 1153) | 0.323
13 | UniProt Q6PE15 (peptide sequence: SELPNLAYKR, peptide start residue: 52) | 0.415
14 | UniProt Q6NZC7 (peptide sequence: SAWQTLNEFAR, peptide start residue: 878) | -0.192
15 | UniProt Q6P2L7 (peptide sequence: EGLGKRCEDDK, peptide start residue: 99) | 0.0592
16 | UniProt Q6NT99 (peptide sequence: IVDEANAR, peptide start residue: 80) | -0.197
17 | UniProt Q6PGA0 (peptide sequence: EGNADQPVQTSK, peptide start residue: 238) | -0.192
18 | UniProt Q6NXH3 (peptide sequence: NGTGPSVYK, peptide start residue: 201) | 0.313

Row | Target | log2 fold change
19 | UniProt Q6P073 (peptide sequence: LKQDYLR, peptide start residue: 17) | -0.0145
20 | UniProt Q69ZS8 (peptide sequence: AKEALQAMKADR, peptide start residue: 139) | -0.0469
21 | UniProt Q6Q477 (peptide sequence: MVTGDNVNTAR, peptide start residue: 695) | 0.224
22 | UniProt Q6PGG6 (peptide sequence: NCIHVQK, peptide start residue: 315) | -0.457
23 | UniProt Q6NZF1 (peptide sequence: KLSVGGDSDPPLKR, peptide start residue: 287) | 0.128
24 | UniProt Q6PB70 (peptide sequence: DQGPDGDRDTETGSGDAAGR, peptide start residue: 684) | 0.0871
25 | UniProt Q6PR54 (peptide sequence: SEEALIGR, peptide start residue: 2003) | 0.48
26 | UniProt Q6NS46 (peptide sequence: NRIEDPEINSIEDVKEGQLLR, peptide start residue: 1319) | -0.565
27 | UniProt Q6NV72 (peptide sequence: TPEHTSTPELNSPQR, peptide start residue: 524) | -0.22
28 | UniProt Q6Q2Z6 (peptide sequence: HFMAPGVR, peptide start residue: 128) | 0.0111
29 | UniProt Q6P549 (peptide sequence: LGVVFEKEKDR, peptide start residue: 378) | -0.304
30 | UniProt Q6GV12 (peptide sequence: AKPEVVDKTA, peptide start residue: 323) | -0.241
31 | UniProt Q6TCG2 (peptide sequence: SPPAATTKPLLR, peptide start residue: 33) | 0.297
32 | UniProt Q6GQT6 (peptide sequence: LPPESCLPSAKPVGRPAR, peptide start residue: 456) | 0.392
33 | UniProt Q6PFX9 (peptide sequence: LVDAANVNAK, peptide start residue: 194) | -0.2
34 | UniProt Q6GQT9 (peptide sequence: VQVVVPEAETR, peptide start residue: 456) | 0.193
35 | UniProt Q6DFW0 (peptide sequence: ERQENVQK, peptide start residue: 149) | 0.58
36 | UniProt Q6P5H2 (peptide sequence: QESLKSPEEEDQQAFR, peptide start residue: 726) | -0.446

Random excerpt: 2 records from the list.
Row | Target | log2 fold change
21 | UniProt Q6Q477 (peptide sequence: MVTGDNVNTAR, peptide start residue: 695) | 0.224
36 | UniProt Q6P5H2 (peptide sequence: QESLKSPEEEDQQAFR, peptide start residue: 726) | -0.446
